# Assay results as given in PubChem BioAssay AID493014 (National Center for Advancing Translational Sciences (NCATS), 2011).
# Hit rate of the full screen: of about 340,000 compounds, about 170 (0.05%) were called active. Inconclusive results, whose numbers are uncertain, are shown with a selection of clear calls. Calls follow the shape of the dose curve; as a rule, active = well fitted inhibition curve with a large enough effect in the signal ratio, with a control signal flat (not every such curve was filed as active); inconclusive = small, poorly fitted or top-dose-only effect, or effect the other way, or a change in a side signal; inactive = flat fitted curve, though single readings scatter; the % refers to the signal ratio. A potency beside an inconclusive call is a rough fit, not a confirmed value.
# Experiment: qHTS Assay to Find Inhibitors of Chronic Active B-Cell Receptor Signaling;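 as to activity change, negative = inhibition: plate controls were basal doxycycline-induced cells for no effect and cells given 10 µM MG132 for full effect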
# Settings: ABC-DLBCL IkBa-CBG/CBR reporter, luminescence ratio (green luciferase fused to IkBa over red control in TMD8 lymphoma cells), 4 h; activity change, negative = inhibition: at 46.1 µM (top of the series)
# Outline: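 Cell line TMD8 (human ABC DLBCL), stably expressing tet-inducible CBG68-IkBa fusion and CBR; IMDM/0.5% FBS; cpd up to 46 uM; dox induction, 4 h, 37C/5% CO2; dual luminescence; green/red ratio; MG132 control.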
# Potency is read from the fitted curve at half-maximal effect.
SMILES,"activity change, negative = inhibition",Potency
CSc1nnc(C)c(/C=C/Nc2ccc(F)cc2)n1,inactive,
Cc1cccc(NC(=O)c2nc[nH]c2C(=O)NCCCCCNC(=O)OC(C)(C)C)c1,inactive,
Cc1ccc(CNC(=O)C2CCN(S(=O)(=O)c3ccc(Br)s3)CC2)cc1,inactive,
CC(/C=C/c1ccccc1)=N\NC(=O)Cn1cncn1,inconclusive: 1.14%,
CCCCC1CCC(c2nc(-c3cccnc3)no2)CC1 (configuration not stated),inconclusive: 1.99%,
Cc1ccc(C)c2c1sc(=NC(=O)CN1C(=O)CCC1=O)n2C,inconclusive: -20.9%,
CN(C)c1ccc(C(=O)Nc2cccc(S(=O)(=O)NC3=NCCCCC3)c2)cc1,,"inconclusive: 13 µM [falling, partial curve]"
Cc1ccnc(NC(=O)c2ccc(C(=O)c3ccccc3)cc2)c1,inconclusive: -14.8%,
N#C/C(=C(O)\C=C\c1ccccc1)c1nc2ccccc2[nH]1,,"inconclusive: 3.16 µM [falling, full curve]"
Cc1cc(NC(=O)c2ccc(Br)cc2)nc(C)n1,,"inconclusive: 22.4 µM [falling, single point]"
O=C1CCCC/C1=C\Nc1ccc(Cl)cn1,inconclusive: 4.13%,
COc1ccc(C(=O)c2cnc3ccccc3c2-c2ccccc2)cc1,inactive,
CCCCCCCn1c(=N)n(CC(O)c2ccco2)c2ccccc21 (configuration not stated),inconclusive: -21.8%,
NCCOc1ccccc1OCCN,,"inconclusive: 35.5 µM [falling, single point]"
CCOc1ccc(S(=O)(=O)N2CCCCC2)cc1NC(=O)Cc1cccc(C(F)(F)F)c1,inconclusive: 2.37%,
O=C(O)CCCCCNC(=O)C(=O)C1C(=O)Nc2ccccc21 (configuration not stated),,"inconclusive: 15.8 µM [falling, partial curve]"
CC(=O)Nc1ccc(NC(=O)C/C(C)=N/NC(=O)c2cccc3ccccc23)cc1,,"inconclusive: 5.62 µM [falling, partial curve]"
COc1ccc(CCn2c(-c3cc([N+](=O)[O-])cc([N+](=O)[O-])c3)nc3nc4ccccc4nc32)cc1,inconclusive: 3.89%,
O=C(Cc1cc(C(=O)O)c2ccccc2n1)Nc1ccccc1,,"inconclusive: 12.6 µM [falling, partial curve, poor fit]"
COc1ccc(-c2c(C)n([O-])c3c([n+]2=O)CCCCC3)cc1OC,inconclusive: 8.23%,
C=CCc1ccc(OCCCNCc2ccccc2)c(OC)c1,inactive,

# Retrieved by compound from the entries so far (2):
SMILES,"activity change, negative = inhibition",Potency
O=C1CCCC/C1=C\Nc1ccc(Cl)cn1,inconclusive: 4.13%,
N#C/C(=C(O)\C=C\c1ccccc1)c1nc2ccccc2[nH]1,,"inconclusive: 3.16 µM [falling, full curve]"

# (cont.)

SMILES,"activity change, negative = inhibition",Potency
Cc1cc(C)nc(NC(=O)/C=C/c2ccc(Cl)cc2)n1,,"inconclusive: 15.8 µM [falling, partial curve]"
C[C@@H](NC(=O)c1[nH]cnc1C(=O)Nc1ccon1)c1ccccc1,inactive,
CCOC(=O)c1ccc(CN(Cc2ccc(F)cc2)S(=O)(=O)c2ccc(F)c(C(=O)Nc3c(C)cccc3C)c2)cc1,inactive,
CC(C)C(=O)NC(=S)Nc1ccc(S(=O)(=O)NC2CCCCC2)cc1,inconclusive: -3.99%,
COc1ccc(N2CCN(C(=O)c3cccc(S(=O)(=O)N4CCOCC4)c3)CC2)cc1,inconclusive: -0.61%,
CC1CCN(CC(=O)Nc2ccc(S(=O)(=O)N3CCCCC3)cc2)CC1,inactive,
CCOC(=O)[C@H]1[C@H]2COc3ccc(C)cc3[C@@H]2N2C(=O)CN(Cc3ccco3)C(=O)[C@@]12C,inconclusive: 13.6%,
CC(=O)Nc1ccc(CN2CCN(Cc3ccc(C)cc3)C(CCO)C2)cc1 (configuration not stated),inconclusive: -27.5%,
COC(=O)c1ccc(CSC2=NCCS2)cc1,inconclusive: 0.468%,
O=C(Nc1nc2c(F)cc(F)cc2s1)c1ccccn1,,"inconclusive: 3.55 µM [cytotoxic, full curve]"
CC(=O)c1ccc(OCc2cc(C(=O)N(C)Cc3ccccn3)no2)cc1,inactive,
O=C(CC1S/C(=N\S(=O)(=O)c2ccccc2)N(c2ccccc2)C1=O)Nc1ccc(F)cc1 (configuration not stated),inactive,
C=CCOc1ccc(C(=O)O)cc1Cl,inconclusive: -35.7%,
Cc1ccc(C)c(NC(=O)CN(C)C(=O)c2ccccc2OCc2ccccc2Cl)c1,inconclusive: -12.1%,
CCOC(=O)c1[nH]cnc1C(=O)NC1CCN(C(=O)OC(C)(C)C)CC1,inconclusive: -6.39%,
COC(=O)c1ccc(C(=O)OC)c(NC(=O)COc2ccccc2OC)c1,inconclusive: 7.34%,
COc1cnc(-c2ccccn2)nc1Sc1cccc(Cl)c1,inactive,
Cc1ccc(-n2ncc3c(Nc4cccc(C(=O)O)c4)ncnc32)cc1,,"inconclusive: 15.8 µM [falling, partial curve]"
O=C(Nc1ccccc1N1CCN(C(=O)c2ccccc2)CC1)c1ccco1,inconclusive: 3.75%,
CCCOc1ccc(C(=O)CCC(=O)OCC(=O)Nc2cc(C)on2)cc1,inconclusive: 16.6%,
Cc1nc2ccc(NS(=O)(=O)c3cccc([N+](=O)[O-])c3)cc2s1,inconclusive: -2.42%,

SMILES,"activity change, negative = inhibition",Potency
O=C(NCC(c1cccs1)N1CCOCC1)C1CCN(S(=O)(=O)c2cccc(C(F)(F)F)c2)CC1 (configuration not stated),inactive,
Cc1cccc(/C=C/c2onc(C)c2S(=O)(=O)N2CCC(C(=O)N3CCCCC3)CC2)c1,inconclusive: 9.08%,
CCN(CC)CCCN=C1N[C@@H](c2cccc(F)c2)C(C(=O)OC)=C(C)N1Cc1ccccc1,,"inconclusive: 20.6 µM [falling, single point]"
COC(=O)c1ccccc1NC(=O)c1cc(-c2ccc(O)cc2)on1,,"inconclusive: 0.794 µM [falling, partial curve, poor fit]"
Cn1c(-c2ccccc2F)cc2onc(-c3ccccc3)c2c1=O,inconclusive: 15.8%,
O=C(CC1Nc2ccccc2NC1=O)NCCc1ccccc1 (configuration not stated),inconclusive: -2.36%,
c1ccc(CNc2nc(-c3ccccn3)nc3ccccc23)cc1,inconclusive: -1.7%,
O=C(NC1CCCC1)c1n[nH]c2ccccc12,,"inconclusive: 25.1 µM [falling, single point]"
O=C(CCl)N(C1CCCC1)C1CCS(=O)(=O)C1 (configuration not stated),,"inconclusive: 22.4 µM [falling, single point]"
Cn1c(N)c(C(=O)CSc2nn(-c3ccccc3)c(=S)s2)c(=O)n(C)c1=O,,"inconclusive: 20.6 µM [rising, partial curve, poor fit]"
O=S(=O)(NCCc1csc2nc(-c3ccccc3)nn12)c1cc(F)ccc1F,,"inconclusive: 11.2 µM [rising, single point]"
COc1cc(/C=N/NC(=O)c2cccnc2)ccc1OCC(=O)Nc1ccccc1Cl,inactive,
COc1ccc(C)cc1NC(=O)C12CCC(C)(C(=O)O1)C2(C)C (configuration not stated),inconclusive: 5.08%,
COC(=O)c1cc(Cl)c(NC(=O)c2ccc(C(C)(C)C)cc2)cc1OC,inactive,
CC(C)(C)c1csc(N(CCC#N)CCC#N)n1,inconclusive: -1.8%,
COc1cc(/C=N/n2cnnc2)ccc1OC(=O)c1ccncc1,inconclusive: -14.7%,
CCCCN(C)CCCNC(=O)c1cc(-c2cccs2)nc2ccccc12,inconclusive: 1.22%,
Cc1cccc(CSCc2nnc(N)s2)c1,inconclusive: 0.0729%,
Cc1ccc2cccc(OCCCOc3ccccc3F)c2n1,inconclusive: 1.87%,
Cc1ccc2nc3c(cc(C(=O)NCc4cccnc4)c(=N)n3C(C)C)c(=O)n2c1,inactive,
Cc1nc2sc3c(c2c(=O)o1)CCC3,inconclusive: -0.038%,

SMILES,"activity change, negative = inhibition",Potency
Cc1ccc(NC(=O)c2ccccc2O)cc1,,"inconclusive: 4.61 µM [falling, single point]"
O=C(O)C(O)c1ccco1 (configuration not stated),inactive,
Cc1ccc2[nH]c(=O)c(CN(Cc3ccccc3Cl)C(=O)N3CCOCC3)cc2c1,,"inconclusive: 10.3 µM [falling, partial curve]"
Cc1ccc2cc(/C=N/NC(=O)c3ccccc3O)c(Cl)nc2c1,,"inconclusive: 23.1 µM [falling, partial curve]"
O=C(/C=C/c1ccco1)Nc1ccc2c(c1)OCO2,,"inconclusive: 22.4 µM [falling, partial curve]"
CC(C)COc1nc2ccccc2nc1C(C#N)C(=O)NC1CCCCC1 (configuration not stated),,"inconclusive: 6.51 µM [rising, full curve, poor fit]"
CC(OC(=O)CNC(=O)c1ccc2ccccc2c1)C(=O)N(C)C1CCCCC1 (configuration not stated),inactive,
COCC(C)NC(=O)CCS(=O)(=O)c1nc(-c2ccc(OC)cc2)cc(C(F)(F)F)n1 (configuration not stated),inconclusive: -7.09%,
CSc1nc(-c2ccccc2)cn1-c1ccc(NC(C)=O)cc1,,"inconclusive: 35.5 µM [falling, partial curve, poor fit]"
CC(=O)c1cnc2nc(SCc3ccc(Cl)cc3)nn2c1C,inactive,
CCOc1cccc2sc(NN)nc12,,"inconclusive: 8.91 µM [falling, partial curve]"
Cc1ccc(C2C(C(=O)c3cccs3)=C(O)C(=O)N2c2nnc(C)s2)cc1 (configuration not stated),inconclusive: 8.63%,
CC(C)n1cc(CN2CCC(n3nccc3NC(=O)CCCc3ccccc3)CC2)cn1,inactive,
O=C1/C(=C\c2cccnc2)CCc2ccccc21,inconclusive: -16.1%,
O=C(CCCC(=O)N(CC(=O)NC1CCCC1)Cc1ccccc1Cl)Nc1ccccn1,inconclusive: 3.08%,
Cc1csc(NC(=O)c2cn3ccccc3n2)n1,,"inconclusive: 14.1 µM [falling, partial curve]"
CCOC(=O)C1=C(C)N(c2ccccc2)C(=O)/C1=C\c1cccs1,inconclusive: 5.51%,
CC(C)(Oc1ccc(Cl)cc1)C(=O)OCn1nnc2ccccc2c1=O,inactive,
COc1ccc(C(=O)Nc2ccc(N(C)Cc3ccccc3)c(C(=O)O)c2)cc1,,"inconclusive: 35.5 µM [falling, single point]"
